Some of the results follow.
Compound: CC1Cc2ccccc2N1C(=O)C1CCCN(C1)C(=O)CCl (mixture of isomers) [TRIM25 ligand 11 (diastereomer mixture)]
Assay: probe-labelled cysteine peptide fold change vs DMSO (competition) (log2 fold change); higher = less target engagement (more negative = stronger competition)
Details: THP-1, incubation time: 4 h
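Further: competitive chemoproteomic profiling in live THP-1 cells with an iodoacetamide desthiobiotin (IA-DTB) probe, comparing probe-labelled peptide intensities in compound-treated cells against DMSO-treated controls.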

Amino acid sequences for entries named in this document (tags omitted). A change or cut given only in a name is not applied to a line headed by its entry.
UniProt Q9GZT8: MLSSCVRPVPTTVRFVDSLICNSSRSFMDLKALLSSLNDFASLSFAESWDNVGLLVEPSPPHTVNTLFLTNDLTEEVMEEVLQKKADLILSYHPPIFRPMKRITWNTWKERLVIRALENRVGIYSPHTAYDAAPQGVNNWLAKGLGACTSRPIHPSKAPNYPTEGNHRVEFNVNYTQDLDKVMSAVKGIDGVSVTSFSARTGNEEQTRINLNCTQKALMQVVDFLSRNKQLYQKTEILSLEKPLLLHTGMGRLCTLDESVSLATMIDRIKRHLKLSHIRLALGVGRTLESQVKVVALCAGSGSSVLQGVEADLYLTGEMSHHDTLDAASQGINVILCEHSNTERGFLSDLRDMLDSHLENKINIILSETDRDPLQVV
UniProt Q86X76: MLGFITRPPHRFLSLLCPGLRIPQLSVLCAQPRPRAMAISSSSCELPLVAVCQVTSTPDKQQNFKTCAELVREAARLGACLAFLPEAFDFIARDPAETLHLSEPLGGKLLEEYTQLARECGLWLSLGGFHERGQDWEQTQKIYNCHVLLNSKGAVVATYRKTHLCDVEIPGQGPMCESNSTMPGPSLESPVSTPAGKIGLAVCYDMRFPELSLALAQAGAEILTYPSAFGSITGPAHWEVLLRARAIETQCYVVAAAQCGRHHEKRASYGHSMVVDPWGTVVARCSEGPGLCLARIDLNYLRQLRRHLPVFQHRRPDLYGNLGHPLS
UniProt Q6KC79: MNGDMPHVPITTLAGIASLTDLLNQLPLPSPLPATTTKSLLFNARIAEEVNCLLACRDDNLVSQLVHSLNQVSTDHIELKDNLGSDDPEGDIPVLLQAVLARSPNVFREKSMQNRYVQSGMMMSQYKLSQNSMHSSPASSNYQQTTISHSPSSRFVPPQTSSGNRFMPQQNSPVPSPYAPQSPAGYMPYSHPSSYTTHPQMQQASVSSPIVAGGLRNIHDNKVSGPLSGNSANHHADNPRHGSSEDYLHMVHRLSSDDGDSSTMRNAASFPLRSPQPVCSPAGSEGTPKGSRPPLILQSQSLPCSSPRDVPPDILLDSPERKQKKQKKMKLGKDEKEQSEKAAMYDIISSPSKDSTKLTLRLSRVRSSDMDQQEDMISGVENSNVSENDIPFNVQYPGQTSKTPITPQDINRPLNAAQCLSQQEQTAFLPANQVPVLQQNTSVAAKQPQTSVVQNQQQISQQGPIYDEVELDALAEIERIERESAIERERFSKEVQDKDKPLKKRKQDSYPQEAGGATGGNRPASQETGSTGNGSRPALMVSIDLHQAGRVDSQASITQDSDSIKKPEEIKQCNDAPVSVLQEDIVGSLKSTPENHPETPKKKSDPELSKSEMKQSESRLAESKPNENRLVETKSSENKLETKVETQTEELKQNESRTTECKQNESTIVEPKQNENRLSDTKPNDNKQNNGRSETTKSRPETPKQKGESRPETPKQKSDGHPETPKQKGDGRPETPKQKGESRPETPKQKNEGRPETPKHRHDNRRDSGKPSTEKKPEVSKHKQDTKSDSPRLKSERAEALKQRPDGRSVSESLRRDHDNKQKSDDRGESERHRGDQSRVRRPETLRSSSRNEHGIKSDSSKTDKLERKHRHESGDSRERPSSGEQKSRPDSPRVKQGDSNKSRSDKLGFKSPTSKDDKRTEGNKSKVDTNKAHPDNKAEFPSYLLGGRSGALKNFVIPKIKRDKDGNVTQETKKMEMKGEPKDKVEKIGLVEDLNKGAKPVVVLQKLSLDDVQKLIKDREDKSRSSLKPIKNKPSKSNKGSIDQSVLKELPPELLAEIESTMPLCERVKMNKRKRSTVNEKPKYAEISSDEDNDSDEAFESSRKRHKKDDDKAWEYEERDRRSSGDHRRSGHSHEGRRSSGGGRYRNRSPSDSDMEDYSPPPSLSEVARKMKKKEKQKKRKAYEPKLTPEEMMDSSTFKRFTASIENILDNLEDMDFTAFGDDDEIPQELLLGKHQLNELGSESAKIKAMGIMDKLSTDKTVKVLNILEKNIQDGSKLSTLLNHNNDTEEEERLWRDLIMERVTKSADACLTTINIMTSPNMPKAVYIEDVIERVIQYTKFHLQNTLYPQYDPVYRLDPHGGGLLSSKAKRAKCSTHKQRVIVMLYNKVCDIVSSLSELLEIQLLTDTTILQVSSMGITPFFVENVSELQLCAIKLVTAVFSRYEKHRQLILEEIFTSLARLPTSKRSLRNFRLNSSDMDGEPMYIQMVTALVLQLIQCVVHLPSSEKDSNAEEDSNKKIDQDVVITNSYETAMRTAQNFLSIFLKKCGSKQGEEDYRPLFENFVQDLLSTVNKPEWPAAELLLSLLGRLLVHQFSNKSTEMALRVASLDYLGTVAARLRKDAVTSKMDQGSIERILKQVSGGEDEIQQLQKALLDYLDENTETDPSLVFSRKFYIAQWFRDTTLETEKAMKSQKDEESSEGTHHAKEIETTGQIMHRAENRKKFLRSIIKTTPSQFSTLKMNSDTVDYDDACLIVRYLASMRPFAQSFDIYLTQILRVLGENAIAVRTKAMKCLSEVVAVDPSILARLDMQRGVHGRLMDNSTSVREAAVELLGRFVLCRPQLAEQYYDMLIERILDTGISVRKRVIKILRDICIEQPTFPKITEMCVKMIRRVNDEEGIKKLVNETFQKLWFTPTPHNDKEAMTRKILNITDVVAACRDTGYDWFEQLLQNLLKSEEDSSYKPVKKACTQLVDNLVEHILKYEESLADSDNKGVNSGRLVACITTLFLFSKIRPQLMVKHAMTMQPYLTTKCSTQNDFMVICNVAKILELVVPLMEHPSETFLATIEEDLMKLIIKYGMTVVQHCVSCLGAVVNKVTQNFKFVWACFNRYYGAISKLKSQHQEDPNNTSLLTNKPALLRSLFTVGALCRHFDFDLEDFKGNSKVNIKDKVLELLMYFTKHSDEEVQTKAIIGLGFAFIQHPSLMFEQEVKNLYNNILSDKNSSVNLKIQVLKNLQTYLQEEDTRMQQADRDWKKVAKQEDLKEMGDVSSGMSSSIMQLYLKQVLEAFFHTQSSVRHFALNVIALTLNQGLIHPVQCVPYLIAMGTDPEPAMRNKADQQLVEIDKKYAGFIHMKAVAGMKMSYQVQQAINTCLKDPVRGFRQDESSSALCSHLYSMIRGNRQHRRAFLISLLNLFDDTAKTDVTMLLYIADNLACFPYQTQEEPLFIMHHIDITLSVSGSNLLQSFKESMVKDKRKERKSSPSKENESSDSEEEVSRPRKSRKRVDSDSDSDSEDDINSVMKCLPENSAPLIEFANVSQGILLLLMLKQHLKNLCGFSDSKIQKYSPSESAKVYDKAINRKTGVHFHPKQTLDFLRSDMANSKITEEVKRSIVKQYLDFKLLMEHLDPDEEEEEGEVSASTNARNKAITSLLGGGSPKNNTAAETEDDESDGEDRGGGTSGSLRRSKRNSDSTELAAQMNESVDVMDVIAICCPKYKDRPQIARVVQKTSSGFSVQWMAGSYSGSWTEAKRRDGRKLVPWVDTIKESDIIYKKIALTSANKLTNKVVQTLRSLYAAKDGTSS
UniProt O75376, whole entry, looked up: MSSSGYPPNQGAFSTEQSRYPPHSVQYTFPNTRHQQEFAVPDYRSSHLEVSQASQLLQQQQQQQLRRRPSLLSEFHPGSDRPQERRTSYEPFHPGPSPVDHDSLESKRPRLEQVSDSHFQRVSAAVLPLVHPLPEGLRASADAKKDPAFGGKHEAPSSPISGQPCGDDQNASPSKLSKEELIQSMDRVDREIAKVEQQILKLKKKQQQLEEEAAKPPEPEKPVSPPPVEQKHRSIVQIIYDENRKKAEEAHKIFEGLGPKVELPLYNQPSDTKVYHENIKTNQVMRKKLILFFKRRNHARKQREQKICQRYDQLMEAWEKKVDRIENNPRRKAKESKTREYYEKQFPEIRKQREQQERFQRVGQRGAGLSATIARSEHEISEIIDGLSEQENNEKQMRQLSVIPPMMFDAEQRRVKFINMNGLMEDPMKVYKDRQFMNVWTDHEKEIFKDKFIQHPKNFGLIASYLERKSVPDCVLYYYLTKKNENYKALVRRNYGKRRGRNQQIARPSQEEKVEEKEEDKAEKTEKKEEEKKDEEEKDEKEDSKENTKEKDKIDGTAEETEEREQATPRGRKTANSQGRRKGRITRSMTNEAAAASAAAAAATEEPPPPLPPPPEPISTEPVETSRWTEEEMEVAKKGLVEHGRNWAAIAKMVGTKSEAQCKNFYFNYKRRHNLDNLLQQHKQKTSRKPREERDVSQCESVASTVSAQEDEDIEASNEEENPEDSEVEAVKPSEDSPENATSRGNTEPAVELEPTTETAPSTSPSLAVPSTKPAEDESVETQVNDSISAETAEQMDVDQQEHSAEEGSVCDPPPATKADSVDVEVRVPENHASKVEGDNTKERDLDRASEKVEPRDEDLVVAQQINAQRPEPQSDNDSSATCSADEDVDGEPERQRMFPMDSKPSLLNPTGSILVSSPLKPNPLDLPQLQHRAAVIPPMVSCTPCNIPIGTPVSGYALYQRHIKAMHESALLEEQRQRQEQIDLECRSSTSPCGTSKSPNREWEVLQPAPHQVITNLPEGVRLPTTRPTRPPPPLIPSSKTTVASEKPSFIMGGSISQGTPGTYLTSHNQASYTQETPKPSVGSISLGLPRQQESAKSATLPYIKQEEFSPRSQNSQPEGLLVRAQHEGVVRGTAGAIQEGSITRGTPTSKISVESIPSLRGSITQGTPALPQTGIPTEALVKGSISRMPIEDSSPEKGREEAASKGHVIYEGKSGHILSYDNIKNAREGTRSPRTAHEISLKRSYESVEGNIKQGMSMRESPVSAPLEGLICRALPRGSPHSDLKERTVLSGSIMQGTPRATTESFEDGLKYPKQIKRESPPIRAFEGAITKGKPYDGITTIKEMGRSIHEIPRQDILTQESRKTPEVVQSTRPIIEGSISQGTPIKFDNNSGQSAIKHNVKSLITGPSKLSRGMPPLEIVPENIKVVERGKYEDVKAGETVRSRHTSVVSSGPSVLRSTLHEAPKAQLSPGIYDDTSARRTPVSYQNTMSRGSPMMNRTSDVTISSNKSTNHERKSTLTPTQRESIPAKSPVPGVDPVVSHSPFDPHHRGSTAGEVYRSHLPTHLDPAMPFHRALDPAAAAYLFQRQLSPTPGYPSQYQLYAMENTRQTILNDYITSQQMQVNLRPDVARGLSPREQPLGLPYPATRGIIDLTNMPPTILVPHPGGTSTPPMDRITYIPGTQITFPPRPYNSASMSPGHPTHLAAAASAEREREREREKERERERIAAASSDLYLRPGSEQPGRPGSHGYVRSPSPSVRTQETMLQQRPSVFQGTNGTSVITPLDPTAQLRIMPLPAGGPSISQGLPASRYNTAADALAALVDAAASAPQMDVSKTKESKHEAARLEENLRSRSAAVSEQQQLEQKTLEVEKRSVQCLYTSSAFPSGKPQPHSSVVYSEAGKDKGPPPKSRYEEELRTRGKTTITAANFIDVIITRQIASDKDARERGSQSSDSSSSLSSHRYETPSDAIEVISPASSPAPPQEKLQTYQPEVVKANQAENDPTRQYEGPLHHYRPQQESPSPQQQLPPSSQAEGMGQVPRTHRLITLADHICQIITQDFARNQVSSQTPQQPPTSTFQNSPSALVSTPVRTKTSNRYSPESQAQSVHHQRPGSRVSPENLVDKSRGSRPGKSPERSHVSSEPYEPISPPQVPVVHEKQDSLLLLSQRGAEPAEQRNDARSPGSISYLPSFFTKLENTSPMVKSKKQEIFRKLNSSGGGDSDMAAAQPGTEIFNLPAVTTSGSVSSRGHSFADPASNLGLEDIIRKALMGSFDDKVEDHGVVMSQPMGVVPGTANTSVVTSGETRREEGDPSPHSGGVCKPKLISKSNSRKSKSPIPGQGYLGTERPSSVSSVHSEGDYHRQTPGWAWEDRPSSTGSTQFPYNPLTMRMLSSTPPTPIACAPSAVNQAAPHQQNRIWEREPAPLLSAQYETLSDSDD
UniProt O14777: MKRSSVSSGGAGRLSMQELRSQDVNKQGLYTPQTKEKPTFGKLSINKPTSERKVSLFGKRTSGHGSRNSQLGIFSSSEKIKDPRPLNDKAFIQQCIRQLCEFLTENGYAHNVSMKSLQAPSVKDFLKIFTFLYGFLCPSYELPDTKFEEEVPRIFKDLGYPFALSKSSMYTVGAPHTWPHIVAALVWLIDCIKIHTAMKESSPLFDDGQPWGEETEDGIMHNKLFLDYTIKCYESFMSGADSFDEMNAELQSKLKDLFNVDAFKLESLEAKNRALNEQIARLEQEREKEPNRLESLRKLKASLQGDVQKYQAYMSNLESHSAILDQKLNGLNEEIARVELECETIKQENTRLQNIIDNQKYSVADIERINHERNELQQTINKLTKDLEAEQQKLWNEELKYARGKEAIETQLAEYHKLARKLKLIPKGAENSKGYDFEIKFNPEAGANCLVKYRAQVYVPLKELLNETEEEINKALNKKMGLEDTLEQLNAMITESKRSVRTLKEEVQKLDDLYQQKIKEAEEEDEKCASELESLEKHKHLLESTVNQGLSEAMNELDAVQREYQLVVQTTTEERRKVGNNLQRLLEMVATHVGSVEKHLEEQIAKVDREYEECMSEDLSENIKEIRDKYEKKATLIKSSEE

Target	probe-labelled cysteine peptide fold change (10 µM)	probe-labelled cysteine peptide fold change (50 µM)
NIF3L1_Q9GZT8_213_INLNCTQK (UniProt Q9GZT8)	-0.00901	0.186
NF1_P21359_509_LLLCNPR (UniProt P21359)	0.119	0.0231
NEU1_Q99519_230_DGVFCLLSDDHGASWR (UniProt Q99519)	0.00991	-0.0341
NIT1_Q86X76_120_ECGLWLSLGGFHER (UniProt Q86X76)	-0.237	0.0468
NCF2_P19878_40+45_ICFNIGCMYTILK (UniProt P19878)	-0.255	-0.17
NIPBL_Q6KC79_573_QCNDAPVSVLQEDIVGSLK (UniProt Q6KC79)	-0.195	-0.268
NEK9_Q8TD19_375_QVCAGNTHFAVVTVEK (UniProt Q8TD19)	-0.0198	-0.0595
NCOR1_O75376_474_SVPDCVLYYYLTK (UniProt O75376)	-0.036	0.104
NIPBL_Q6KC79_1940_ILNITDVVAACR (UniProt Q6KC79)	-0.0954	-0.166
NDC80_O14777_342_VELECETIK (UniProt O14777)	0.165	0.339
NCKAP1L_P55160_612_QTSNCVLEICAEQR (UniProt P55160)	-0.0471	-0.248

As entered above.
Entry of NIT1_Q86X76_120_ECGLWLSLGGFHER (UniProt Q86X76) under probe-labelled cysteine peptide fold change (50 µM): 0.0468
Entry of NEU1_Q99519_230_DGVFCLLSDDHGASWR (UniProt Q99519) under probe-labelled cysteine peptide fold change (10 µM): 0.00991

Reference: the supplement of paper PMC12067093, “Discovery and optimisation of a covalent ligand for TRIM25 and its application to targeted protein ubiquitination” (Chemical Science, 2025)
